Experimental data: PMC11246417
No constants are given. Whether binding was seen depends on the method and setting. In cells and extracts the contact can be indirect. Binding calls can cover weak binding; strength is not graded here.

Molecular target: β-transducin repeat-containing protein (β-TrCP) (human (in HCT116 and P53R cells))
Test: co-IP; Dynabeads protein G loaded with 3 μg antibody of the target protein or IgG; cell lysate supernatant incubated with beads overnight at 4 °C; washed three times with lysis buffer; bound proteins and inputs detected by immunoblotting; HCT116 and P53R cells (Fig. 6G)

B1: Ubiquitin domain containing 1 (UBTD1) (protein, UniProt Q9HAC8 1-227)
chain: MGNCVGRQRRERPAAPGHPRKRAGRNEPLKKERLKWKSDYPMTDGQLRSKRDEFWDTAPAFEGRKEIWDALKAAAYAAEANDHELAQAILDGASITLPHGTLCECYDELGNRYQLPIYCLSPPVNLLLEHTEEESLEPPEPPPSVRREFPLKVRLSTGKDVRLSASLPDTVGQLKRQLHAQEGIEPSWQRWFFSGKLLTDRTRLQETKIQKDFVIQVIINQPPPPQD
Q: For B1, which binding is on record?
A: The binding was “binds”.
